# Data as given in the supplement of paper PMC10849652.
# By UniProt entry, the sequences of proteins in these tests, tags left out. Where a name states a change or a piece, a line headed by the entry shows the natural chain unless it says otherwise.
# UniProt Q8N0X4: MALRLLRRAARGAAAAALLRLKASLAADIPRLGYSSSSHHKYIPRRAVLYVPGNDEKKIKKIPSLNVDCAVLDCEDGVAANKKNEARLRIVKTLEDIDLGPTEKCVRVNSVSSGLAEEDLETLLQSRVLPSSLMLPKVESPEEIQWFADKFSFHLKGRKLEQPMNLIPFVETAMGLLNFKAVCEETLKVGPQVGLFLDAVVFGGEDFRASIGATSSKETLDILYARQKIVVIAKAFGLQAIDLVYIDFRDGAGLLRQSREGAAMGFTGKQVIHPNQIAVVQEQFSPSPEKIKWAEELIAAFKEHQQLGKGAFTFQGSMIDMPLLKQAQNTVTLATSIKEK
# UniProt Q8N2M8: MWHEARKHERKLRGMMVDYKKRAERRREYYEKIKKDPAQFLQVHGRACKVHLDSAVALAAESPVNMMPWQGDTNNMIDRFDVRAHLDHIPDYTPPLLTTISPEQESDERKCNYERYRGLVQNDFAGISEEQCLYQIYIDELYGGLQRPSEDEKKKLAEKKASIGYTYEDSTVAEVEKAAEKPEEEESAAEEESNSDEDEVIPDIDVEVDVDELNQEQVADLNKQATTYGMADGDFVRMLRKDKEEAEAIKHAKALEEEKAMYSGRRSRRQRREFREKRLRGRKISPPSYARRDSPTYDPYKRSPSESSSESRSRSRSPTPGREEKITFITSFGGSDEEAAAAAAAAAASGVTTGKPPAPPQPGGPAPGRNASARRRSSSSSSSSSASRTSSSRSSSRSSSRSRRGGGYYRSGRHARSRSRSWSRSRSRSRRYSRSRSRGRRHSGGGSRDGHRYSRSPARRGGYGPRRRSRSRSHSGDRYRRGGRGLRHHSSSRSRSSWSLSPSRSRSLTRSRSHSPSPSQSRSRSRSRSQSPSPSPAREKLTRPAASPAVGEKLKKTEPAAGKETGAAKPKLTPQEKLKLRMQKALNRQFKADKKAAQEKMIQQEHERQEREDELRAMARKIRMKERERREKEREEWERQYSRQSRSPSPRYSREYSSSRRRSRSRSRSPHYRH
# UniProt Q9NY35: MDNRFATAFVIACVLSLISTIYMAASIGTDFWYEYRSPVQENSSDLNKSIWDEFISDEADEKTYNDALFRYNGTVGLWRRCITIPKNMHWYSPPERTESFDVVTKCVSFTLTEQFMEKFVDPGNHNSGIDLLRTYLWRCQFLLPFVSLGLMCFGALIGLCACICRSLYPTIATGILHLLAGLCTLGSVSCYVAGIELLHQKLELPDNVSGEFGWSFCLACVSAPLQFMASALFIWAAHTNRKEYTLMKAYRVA
# UniProt Q96AJ1: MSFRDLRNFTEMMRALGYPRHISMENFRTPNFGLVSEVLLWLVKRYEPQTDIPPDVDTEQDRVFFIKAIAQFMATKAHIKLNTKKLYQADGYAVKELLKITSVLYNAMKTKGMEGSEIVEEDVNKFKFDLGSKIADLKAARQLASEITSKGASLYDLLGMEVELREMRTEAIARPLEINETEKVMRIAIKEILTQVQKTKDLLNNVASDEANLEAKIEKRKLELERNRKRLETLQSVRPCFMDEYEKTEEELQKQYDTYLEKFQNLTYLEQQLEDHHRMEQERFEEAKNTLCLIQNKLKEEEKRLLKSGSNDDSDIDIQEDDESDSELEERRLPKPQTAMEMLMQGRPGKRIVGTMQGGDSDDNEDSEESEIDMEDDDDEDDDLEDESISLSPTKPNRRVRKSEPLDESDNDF
# UniProt Q96NY7: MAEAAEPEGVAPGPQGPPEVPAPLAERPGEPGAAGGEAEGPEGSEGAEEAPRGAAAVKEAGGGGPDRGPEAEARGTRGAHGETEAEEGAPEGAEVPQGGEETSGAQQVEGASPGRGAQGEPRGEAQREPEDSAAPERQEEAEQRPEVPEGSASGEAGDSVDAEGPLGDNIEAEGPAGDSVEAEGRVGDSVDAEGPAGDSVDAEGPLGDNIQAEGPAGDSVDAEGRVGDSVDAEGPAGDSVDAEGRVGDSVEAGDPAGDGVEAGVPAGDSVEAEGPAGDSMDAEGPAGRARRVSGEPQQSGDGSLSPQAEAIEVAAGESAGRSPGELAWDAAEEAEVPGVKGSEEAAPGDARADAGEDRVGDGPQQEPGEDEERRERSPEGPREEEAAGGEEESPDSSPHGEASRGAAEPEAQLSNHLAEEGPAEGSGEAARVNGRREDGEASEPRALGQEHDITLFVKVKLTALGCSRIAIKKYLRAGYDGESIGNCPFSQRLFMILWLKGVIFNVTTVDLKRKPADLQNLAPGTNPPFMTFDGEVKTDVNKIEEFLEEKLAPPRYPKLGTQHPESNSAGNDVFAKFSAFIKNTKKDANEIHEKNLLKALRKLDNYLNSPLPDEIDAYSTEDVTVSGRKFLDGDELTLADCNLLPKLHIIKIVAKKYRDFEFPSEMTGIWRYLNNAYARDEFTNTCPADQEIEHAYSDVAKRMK
# UniProt P56749: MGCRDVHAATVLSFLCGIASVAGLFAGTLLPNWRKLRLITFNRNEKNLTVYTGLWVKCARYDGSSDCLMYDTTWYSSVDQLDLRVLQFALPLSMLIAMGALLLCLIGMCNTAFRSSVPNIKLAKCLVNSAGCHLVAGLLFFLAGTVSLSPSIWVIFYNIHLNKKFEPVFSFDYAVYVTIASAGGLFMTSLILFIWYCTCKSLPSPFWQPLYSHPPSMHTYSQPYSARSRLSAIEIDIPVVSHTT
# UniProt Q8N3C7: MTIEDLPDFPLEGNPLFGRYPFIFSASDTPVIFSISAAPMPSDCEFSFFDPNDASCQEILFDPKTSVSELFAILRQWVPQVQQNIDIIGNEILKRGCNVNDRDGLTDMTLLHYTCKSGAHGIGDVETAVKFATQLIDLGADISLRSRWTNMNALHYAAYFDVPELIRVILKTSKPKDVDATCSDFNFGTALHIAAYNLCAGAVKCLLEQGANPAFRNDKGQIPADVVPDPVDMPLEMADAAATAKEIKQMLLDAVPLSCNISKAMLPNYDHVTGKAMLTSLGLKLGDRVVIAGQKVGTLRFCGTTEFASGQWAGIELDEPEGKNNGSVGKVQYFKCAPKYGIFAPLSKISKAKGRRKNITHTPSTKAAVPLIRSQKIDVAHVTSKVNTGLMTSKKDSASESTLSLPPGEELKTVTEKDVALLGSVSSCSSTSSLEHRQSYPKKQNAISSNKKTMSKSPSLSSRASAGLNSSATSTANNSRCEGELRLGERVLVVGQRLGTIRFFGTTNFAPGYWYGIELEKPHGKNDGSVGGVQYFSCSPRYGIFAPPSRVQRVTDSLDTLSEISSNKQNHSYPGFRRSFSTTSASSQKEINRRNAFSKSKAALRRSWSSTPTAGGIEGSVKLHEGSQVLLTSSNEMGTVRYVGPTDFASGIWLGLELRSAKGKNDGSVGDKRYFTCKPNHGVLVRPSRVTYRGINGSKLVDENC
# UniProt P09497: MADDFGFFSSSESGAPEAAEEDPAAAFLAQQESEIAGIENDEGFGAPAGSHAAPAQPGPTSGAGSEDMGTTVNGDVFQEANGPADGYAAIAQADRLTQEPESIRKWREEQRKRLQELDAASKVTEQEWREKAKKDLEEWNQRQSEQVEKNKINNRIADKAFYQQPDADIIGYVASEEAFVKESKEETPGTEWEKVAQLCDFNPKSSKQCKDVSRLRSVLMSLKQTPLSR
# UniProt P51790: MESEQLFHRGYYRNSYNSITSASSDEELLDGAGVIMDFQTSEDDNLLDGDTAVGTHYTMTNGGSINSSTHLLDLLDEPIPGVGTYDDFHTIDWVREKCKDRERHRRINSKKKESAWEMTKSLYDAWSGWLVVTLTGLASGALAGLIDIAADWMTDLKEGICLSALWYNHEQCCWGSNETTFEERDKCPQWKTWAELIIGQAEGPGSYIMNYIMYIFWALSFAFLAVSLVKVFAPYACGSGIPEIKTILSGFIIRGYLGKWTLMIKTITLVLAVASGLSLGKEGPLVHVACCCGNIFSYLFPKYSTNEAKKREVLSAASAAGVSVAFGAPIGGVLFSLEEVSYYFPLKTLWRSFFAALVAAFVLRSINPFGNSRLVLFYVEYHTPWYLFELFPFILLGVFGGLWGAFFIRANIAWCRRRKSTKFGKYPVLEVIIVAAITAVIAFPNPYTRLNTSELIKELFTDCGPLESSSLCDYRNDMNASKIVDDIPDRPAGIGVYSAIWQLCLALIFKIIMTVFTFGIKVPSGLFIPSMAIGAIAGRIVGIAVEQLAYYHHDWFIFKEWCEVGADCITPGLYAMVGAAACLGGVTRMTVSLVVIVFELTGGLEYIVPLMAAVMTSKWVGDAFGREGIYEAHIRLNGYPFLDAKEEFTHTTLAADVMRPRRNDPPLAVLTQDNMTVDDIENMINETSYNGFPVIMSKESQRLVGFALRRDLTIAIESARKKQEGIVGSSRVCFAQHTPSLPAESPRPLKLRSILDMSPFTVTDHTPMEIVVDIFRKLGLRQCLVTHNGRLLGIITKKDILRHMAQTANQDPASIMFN
# UniProt Q9Y696: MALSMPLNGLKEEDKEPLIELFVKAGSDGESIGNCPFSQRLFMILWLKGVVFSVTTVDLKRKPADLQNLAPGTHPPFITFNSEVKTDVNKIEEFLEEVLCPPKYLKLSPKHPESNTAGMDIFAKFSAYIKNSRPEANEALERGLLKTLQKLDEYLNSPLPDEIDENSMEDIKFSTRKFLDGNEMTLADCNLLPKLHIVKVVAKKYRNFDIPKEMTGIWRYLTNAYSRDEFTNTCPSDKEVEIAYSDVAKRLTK
# UniProt Q9H078: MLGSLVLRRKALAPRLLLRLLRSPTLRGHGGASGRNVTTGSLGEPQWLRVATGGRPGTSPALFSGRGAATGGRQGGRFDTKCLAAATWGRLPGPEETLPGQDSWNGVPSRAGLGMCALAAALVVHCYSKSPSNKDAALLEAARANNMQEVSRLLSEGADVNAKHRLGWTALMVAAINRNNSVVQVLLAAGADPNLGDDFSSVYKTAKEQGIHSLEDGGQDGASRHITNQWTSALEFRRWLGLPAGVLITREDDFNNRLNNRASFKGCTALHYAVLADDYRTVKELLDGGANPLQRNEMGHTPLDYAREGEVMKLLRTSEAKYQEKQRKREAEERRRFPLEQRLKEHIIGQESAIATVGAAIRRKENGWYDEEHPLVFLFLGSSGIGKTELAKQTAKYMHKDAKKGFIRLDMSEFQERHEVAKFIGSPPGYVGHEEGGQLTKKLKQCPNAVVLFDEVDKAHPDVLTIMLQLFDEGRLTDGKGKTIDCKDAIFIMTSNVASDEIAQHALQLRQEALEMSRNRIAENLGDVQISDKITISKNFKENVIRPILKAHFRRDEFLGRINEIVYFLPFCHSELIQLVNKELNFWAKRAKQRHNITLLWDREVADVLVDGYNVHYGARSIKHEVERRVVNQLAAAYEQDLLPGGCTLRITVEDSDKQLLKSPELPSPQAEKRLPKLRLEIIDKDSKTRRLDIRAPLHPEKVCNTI
# UniProt P51788: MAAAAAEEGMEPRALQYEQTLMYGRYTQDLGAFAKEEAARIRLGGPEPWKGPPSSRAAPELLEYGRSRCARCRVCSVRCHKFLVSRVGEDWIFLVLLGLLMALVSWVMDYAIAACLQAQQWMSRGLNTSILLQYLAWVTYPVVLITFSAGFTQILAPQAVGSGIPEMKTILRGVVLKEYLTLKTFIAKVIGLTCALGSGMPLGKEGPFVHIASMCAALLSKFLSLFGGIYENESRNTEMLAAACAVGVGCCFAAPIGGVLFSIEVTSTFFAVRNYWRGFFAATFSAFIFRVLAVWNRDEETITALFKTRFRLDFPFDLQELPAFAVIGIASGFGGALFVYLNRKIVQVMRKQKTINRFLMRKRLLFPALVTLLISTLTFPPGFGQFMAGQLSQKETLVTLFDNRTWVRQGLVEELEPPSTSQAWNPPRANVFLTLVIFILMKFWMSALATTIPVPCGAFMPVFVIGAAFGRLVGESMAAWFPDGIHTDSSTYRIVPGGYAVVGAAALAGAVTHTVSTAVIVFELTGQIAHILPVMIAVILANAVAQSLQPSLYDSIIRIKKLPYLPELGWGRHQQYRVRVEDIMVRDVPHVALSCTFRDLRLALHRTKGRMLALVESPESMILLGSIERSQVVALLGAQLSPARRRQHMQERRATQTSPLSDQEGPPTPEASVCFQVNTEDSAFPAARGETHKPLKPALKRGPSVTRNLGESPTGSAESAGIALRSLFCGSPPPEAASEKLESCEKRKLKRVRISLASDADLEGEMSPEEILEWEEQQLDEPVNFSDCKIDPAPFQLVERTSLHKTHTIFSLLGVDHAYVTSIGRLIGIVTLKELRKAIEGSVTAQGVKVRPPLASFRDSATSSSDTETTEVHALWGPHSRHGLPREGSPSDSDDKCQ
# UniProt P0C7P0: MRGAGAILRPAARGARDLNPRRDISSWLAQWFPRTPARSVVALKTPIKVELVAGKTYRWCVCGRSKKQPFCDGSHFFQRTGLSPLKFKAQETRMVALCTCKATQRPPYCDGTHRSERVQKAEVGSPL
# UniProt Q8IZR5: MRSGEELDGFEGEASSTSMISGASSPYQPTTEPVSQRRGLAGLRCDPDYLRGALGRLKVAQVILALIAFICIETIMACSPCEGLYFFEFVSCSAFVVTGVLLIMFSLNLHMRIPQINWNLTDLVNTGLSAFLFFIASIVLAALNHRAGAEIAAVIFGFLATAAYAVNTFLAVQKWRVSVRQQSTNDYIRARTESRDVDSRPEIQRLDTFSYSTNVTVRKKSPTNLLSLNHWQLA
# The other results are listed elsewhere or left out.
# Compound: Cc1cc(Nc2cc(N3CCN(C)CC3)nc(Sc3ccc(NC(=O)C4CC4)cc3)n2)n[nH]1 [tozasertib]
# Assay: log2 fold change, soluble protein after heating vs DMSO (PISA); higher = thermal stabilisation; K562 lysate, 10 uM; active = over 0.2 and 3.5 SD of the protein, either way, in both replicates (recomputed)
# How it was run: (§1)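 Log-two fold change in thermal stability relative to solvent controls is reported from duplicates. For each sample, crude K562 extract from dounce-homogenised pellets in PBS pH 7.4 with 1 mM MgCl2, at 1 mg/mL protein, was treated with 10 μM compound for 30 min. Aliquots heated for 3 min across 48°C-58°C were pooled, brought to 0.5% NP-40 at 4°C and cleared at 21,000xg for 90 min. The supernatant was quantified by TMTpro 16plex LC-MS/MS with channel sums equalised.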
row,Target,log2 fold change
1,CLNS1A (UniProt P54105),inactive: -0.022
2,CLYBL (UniProt Q8N0X4),inactive: -0.164
3,CLASRP (UniProt Q8N2M8),inactive: -0.031
4,CHTF18 (UniProt Q8WVB6),inactive: -0.05
5,CLCC1 (UniProt Q96S66),inactive: -0.016
6,CLGN (UniProt O14967),inactive: 0.041
7,CLDND1 (UniProt Q9NY35),inactive: -0.006
8,CLUAP1 (UniProt Q96AJ1),inactive: -0.041
9,CLIC6 (UniProt Q96NY7),inactive: -0.009
10,CLPTM1L (UniProt Q96KA5),inactive: 0.004
11,CLTA (UniProt P09496),inactive: 0.011
12,CLDN12 (UniProt P56749),inactive: -0.127
13,CLUH (UniProt O75153),inactive: -0.005
14,CLIP4 (UniProt Q8N3C7),inactive: 0.072
15,CLK3 (UniProt P49761),inactive: -0.016
16,CLTB isoform 2 (UniProt P09497),inactive: 0.021

row,Target,log2 fold change
1,CLCN3 (UniProt P51790),inactive: -0.008
2,CIR1 (UniProt Q86X95),inactive: 0.033
3,CLSPN (UniProt Q9HAW4),inactive: -0.037
4,CLPX (UniProt O76031),inactive: -0.069
5,CLCN3 isoform 2 (UniProt P51790),inactive: -0.011
6,CLIC4 (UniProt Q9Y696),inactive: -0.004
7,CLPB isoform 2 (UniProt Q9H078),inactive: 0.046
8,CLEC16A (UniProt Q2KHT3),inactive: -0.044
9,CHFR (UniProt Q96EP1),inactive: -0.063
10,CLCN2 (UniProt P51788),inactive: -0.005
11,CLASP2 (UniProt O75122),inactive: 0.052
12,CLPTM1 (UniProt O96005),inactive: -0.005
13,CLPP (UniProt Q16740),inactive: 0.023
14,CLSTN1 (UniProt O94985),inactive: 0.436
15,CISD3 (UniProt P0C7P0),inactive: 0.035

# Compound: Cc1ccc(-n2nc(C(C)(C)C)cc2NC(=O)Nc2ccc(OCCN3CCOCC3)c3ccccc23)cc1 [doramapimod]
# Assay: as above
# How it was run: as §1
row,Target,log2 fold change
1,CLNS1A (UniProt P54105),inactive: -0.038
2,CLYBL (UniProt Q8N0X4),inactive: -0.027
3,CLASRP (UniProt Q8N2M8),inactive: 0.023
4,CHTF18 (UniProt Q8WVB6),inactive: 0.007
5,CLCC1 (UniProt Q96S66),inactive: -0.022
6,CLGN (UniProt O14967),inactive: 0.006
7,CLDND1 (UniProt Q9NY35),inactive: 0.009
8,CLUAP1 (UniProt Q96AJ1),inactive: -0.096
9,CLIC6 (UniProt Q96NY7),inactive: 0.004
10,CMTM4 (UniProt Q8IZR5),inactive: -0.107
11,CLPTM1L (UniProt Q96KA5),inactive: -0.098
12,CLTA (UniProt P09496),inactive: 0.019
13,CLDN12 (UniProt P56749),inactive: -0.047
14,CLUH (UniProt O75153),inactive: -0.007
15,CLIP4 (UniProt Q8N3C7),inactive: 0.074
16,CLK3 (UniProt P49761),inactive: 0.195
17,CLTB isoform 2 (UniProt P09497),inactive: 0.015

row,Target,log2 fold change
1,CKLF (UniProt Q9UBR5),inactive: 0.019
2,CLCN3 (UniProt P51790),inactive: 0.033
3,CIR1 (UniProt Q86X95),inactive: 0.035
4,CLSPN (UniProt Q9HAW4),inactive: 0.115
5,CLPX (UniProt O76031),inactive: 0.014
6,CLCN3 isoform 2 (UniProt P51790),inactive: 0.026
7,CLIC4 (UniProt Q9Y696),inactive: -0.017
8,CLPB isoform 2 (UniProt Q9H078),inactive: -0.01
9,CLEC16A (UniProt Q2KHT3),inactive: 0.023
10,CHFR (UniProt Q96EP1),inactive: -0.012
11,CLCN2 (UniProt P51788),inactive: 0.005
12,CLASP2 (UniProt O75122),inactive: -0.001
13,CLPTM1 (UniProt O96005),inactive: -0.068
14,CLPP (UniProt Q16740),inactive: 0.017
15,CLSTN1 (UniProt O94985),inactive: 0.06
16,CISD3 (UniProt P0C7P0),inactive: 0.082
